Experimental data published in the supplement of paper PMC5393889.
Some of the results follow.

The molecules below were run on Caenorhabditis elegans N2 (assay: aldicarb interaction hit call (worm growth perturbed in combination with 10 uM aldicarb in both replicates, no effect as single agent) (binary (1 = interacts)); higher = interacts with aldicarb (growth perturbed)). Conditions: first compound 1.5 µM; aldicarb concentration 10 µM; 6 days; 20 °C.

SMILES | aldicarb interaction hit call
FC(F)(F)c1ccc(-c2noc(CN3CCC(OCc4ccccn4)CC3)n2)cc1 [wact-241] + CNC(=O)O/N=C/C(C)(C)SC [aldicarb] | inactive: 0
COc1cccc(-c2noc(-c3cccs3)n2)c1 [wact-136] + CNC(=O)O/N=C/C(C)(C)SC [aldicarb] | inactive: 0
Fc1ccc(CN2CCCN(Cc3nc(-c4ccc5c(c4)OCO5)no3)CC2)cc1 [wact-295] + CNC(=O)O/N=C/C(C)(C)SC [aldicarb] | inactive: 0
CCCN1CCN(C(=O)Nc2cc(Cl)cc(Cl)c2)CC1 [wact-200] + CNC(=O)O/N=C/C(C)(C)SC [aldicarb] | inactive: 0
CSc1ccc(/C=N/NC(=O)c2cccc(Cl)c2)cc1 [wact-365] + CNC(=O)O/N=C/C(C)(C)SC [aldicarb] | inactive: 0
COc1cc(CNCCO)cc(Cl)c1OCc1ccc(Cl)cc1Cl.Cl [wact-98] + CNC(=O)O/N=C/C(C)(C)SC [aldicarb] | inactive: 0
COc1ccc(-c2n[nH]cc2CNCCc2ccc(Cl)cc2)cc1F [wact-245] + CNC(=O)O/N=C/C(C)(C)SC [aldicarb] | inactive: 0
O=C(Nc1ccc(Oc2ccc(Cl)cc2)cc1)c1ccc([N+](=O)[O-])o1 [wact-461] + CNC(=O)O/N=C/C(C)(C)SC [aldicarb] | inactive: 0
COc1ccccc1CNC(=O)c1ccccc1I [wact-402] + CNC(=O)O/N=C/C(C)(C)SC [aldicarb] | inactive: 0

Some of the entries so far, as a markdown table.

| SMILES | aldicarb interaction hit call |
| --- | --- |
| Fc1ccc(CN2CCCN(Cc3nc(-c4ccc5c(c4)OCO5)no3)CC2)cc1 [wact-295] + CNC(=O)O/N=C/C(C)(C)SC [aldicarb] | inactive: 0 |
| CCCN1CCN(C(=O)Nc2cc(Cl)cc(Cl)c2)CC1 [wact-200] + CNC(=O)O/N=C/C(C)(C)SC [aldicarb] | inactive: 0 |
